In the supplement of paper PMC4604168 (melanoma cell lines):
This is one part of the list. Single values are uncertain, as repeats are few or missing.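 Cells were imaged in 1,536-well plates, and nuclei stained with an antibody against cleaved PARP were counted against all DNA-stained nuclei to give the apoptosis fraction. Screening doses were chosen to leave most cells alive, and resting and induced cleaved-PARP levels differ strongly between cell lines.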

Tested on: COLO800
Assay: cleaved PARP positive nuclei fraction relative to DMSO control; melanoma cells; higher = more apoptosis
Conditions: library dose: low library concentration; 72 h

In order of rising “cleaved PARP positive nuclei fraction” value:
1. COc1ccc2c(c1)CCC1C2CCC2(C)C(NCCCCCCN3C(=O)C=CC3=O)CCC12 (stereo unspecified) + COc1cc2ncnc(Nc3ccc(Oc4ccccc4)cc3)c2cc1OC [SrcI1] (first compound 0.4 µM, partner dose 2 µM)  39.4%
2. COc1cc2ncnc(Nc3ccc(Oc4ccccc4)cc3)c2cc1OC + Cc1cc([N+](=O)[O-])ccc1NS(=O)(=O)c1cc(Cl)ccc1Cl [FH535] (first compound 2 µM, partner dose 1 µM)  96.2%
3. CCc1ccc(CCOc2ccc(CC3SC(=O)NC3=O)cc2)nc1 (stereo unspecified) [pioglitazone] + Oc1nc(-c2ccc(C(F)(F)F)cc2)nc2c1CSCC2 [XAV939] (first compound 2 µM, partner dose 2 µM)  102%
4. COc1ccc2c(c1)CCC1C2CCC2(C)C(NCCCCCCN3C(=O)C=CC3=O)CCC12 (stereo unspecified) + Oc1cc(-c2nc(-c3ccccc3)[nH]c2-c2ccncc2)ccc1Cl [L779450] (first compound 0.4 µM, partner dose 0.2 µM)  108%
5. CCCCCCCCCCCC1=C(O)C(=O)C=C(O)C1=O [Embelin] + CC(C)CCN1c2nc(Nc3cc(F)c(O)c(F)c3)ncc2N(C)C(=O)C1C [BID1870] (first compound 1.2 µM, partner dose 0.2 µM)  110%
6. NCC(=O)Nc1ccc(-n2nc(C(F)(F)F)cc2-c2ccc3c(ccc4ccccc43)c2)cc1 + O=S(=O)(c1ccccc1)N(CC(F)(F)F)c1ccc(C(O)(C(F)(F)F)C(F)(F)F)cc1 [T0901317] (first compound 1 µM, partner dose 1.4 µM)  147%
